Laboratory results: PMC5928194
No constants are given. Whether binding was seen depends on the method and setting. In cells and extracts the contact can be indirect. Some binding calls cover weakened binding; strength is not graded here.

The chains behind the UniProt entries cited, without tags or fusion partners. Where a name states a change or a piece, a line headed by the entry shows the natural chain unless it says otherwise.
UniProt Q9Y530: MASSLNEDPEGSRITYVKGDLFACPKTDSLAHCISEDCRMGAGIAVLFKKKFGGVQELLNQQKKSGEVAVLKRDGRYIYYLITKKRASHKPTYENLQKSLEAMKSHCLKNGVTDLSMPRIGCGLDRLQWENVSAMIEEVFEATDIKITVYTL
UniProt P18887: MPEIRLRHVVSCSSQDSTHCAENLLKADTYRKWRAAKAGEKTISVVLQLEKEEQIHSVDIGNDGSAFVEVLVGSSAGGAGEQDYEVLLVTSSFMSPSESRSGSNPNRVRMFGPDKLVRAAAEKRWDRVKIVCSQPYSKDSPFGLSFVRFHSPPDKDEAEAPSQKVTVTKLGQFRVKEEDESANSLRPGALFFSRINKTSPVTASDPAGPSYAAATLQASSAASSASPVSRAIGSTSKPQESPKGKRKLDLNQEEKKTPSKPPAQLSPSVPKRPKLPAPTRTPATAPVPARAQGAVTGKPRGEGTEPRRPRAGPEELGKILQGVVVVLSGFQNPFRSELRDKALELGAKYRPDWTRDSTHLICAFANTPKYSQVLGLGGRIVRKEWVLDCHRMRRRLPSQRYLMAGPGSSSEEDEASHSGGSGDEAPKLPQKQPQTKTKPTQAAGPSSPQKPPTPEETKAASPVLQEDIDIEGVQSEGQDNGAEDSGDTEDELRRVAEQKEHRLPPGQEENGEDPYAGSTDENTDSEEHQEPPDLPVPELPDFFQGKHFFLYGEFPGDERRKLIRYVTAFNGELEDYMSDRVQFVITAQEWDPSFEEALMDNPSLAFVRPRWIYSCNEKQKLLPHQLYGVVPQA
UniProt Q08945: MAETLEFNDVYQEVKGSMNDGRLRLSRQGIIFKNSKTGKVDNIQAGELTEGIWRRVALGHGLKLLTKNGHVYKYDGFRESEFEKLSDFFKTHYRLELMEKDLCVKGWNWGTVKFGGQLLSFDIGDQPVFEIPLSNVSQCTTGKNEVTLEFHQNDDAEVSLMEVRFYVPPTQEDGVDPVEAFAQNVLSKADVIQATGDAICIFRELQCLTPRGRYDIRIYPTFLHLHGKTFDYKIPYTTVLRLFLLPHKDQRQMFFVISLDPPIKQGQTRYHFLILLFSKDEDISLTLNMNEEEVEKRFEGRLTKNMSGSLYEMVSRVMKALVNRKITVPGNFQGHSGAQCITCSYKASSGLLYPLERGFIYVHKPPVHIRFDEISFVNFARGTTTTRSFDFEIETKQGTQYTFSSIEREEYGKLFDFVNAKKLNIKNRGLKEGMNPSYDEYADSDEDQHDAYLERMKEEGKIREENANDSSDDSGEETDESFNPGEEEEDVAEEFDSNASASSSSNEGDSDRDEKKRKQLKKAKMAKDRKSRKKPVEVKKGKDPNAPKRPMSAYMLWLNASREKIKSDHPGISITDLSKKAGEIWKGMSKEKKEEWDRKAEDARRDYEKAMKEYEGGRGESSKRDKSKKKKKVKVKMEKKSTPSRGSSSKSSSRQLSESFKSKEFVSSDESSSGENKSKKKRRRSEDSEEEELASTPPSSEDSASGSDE
UniProt Q86WJ1: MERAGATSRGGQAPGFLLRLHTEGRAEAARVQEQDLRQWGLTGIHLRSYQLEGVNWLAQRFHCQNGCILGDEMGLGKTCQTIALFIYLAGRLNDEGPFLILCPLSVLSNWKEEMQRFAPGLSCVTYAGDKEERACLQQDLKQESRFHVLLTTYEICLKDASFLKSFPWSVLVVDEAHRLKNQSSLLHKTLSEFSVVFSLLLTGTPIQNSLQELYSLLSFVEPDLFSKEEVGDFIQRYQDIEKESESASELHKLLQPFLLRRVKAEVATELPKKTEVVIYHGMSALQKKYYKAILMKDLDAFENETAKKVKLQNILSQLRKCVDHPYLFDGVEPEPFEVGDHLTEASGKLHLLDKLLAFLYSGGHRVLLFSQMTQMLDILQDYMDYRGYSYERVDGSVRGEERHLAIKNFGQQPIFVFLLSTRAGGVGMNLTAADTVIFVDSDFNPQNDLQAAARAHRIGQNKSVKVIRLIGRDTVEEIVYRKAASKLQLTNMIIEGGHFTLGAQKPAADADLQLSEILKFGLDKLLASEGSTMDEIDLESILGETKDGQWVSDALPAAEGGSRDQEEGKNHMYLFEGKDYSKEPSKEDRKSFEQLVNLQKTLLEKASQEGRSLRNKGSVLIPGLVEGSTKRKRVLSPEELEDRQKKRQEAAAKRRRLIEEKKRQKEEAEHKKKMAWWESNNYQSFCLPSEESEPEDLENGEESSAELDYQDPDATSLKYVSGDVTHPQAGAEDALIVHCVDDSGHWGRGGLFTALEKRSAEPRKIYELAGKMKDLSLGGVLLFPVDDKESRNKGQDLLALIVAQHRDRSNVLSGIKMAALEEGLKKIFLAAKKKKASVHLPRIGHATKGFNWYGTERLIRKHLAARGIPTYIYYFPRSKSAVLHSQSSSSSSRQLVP
UniProt P09874: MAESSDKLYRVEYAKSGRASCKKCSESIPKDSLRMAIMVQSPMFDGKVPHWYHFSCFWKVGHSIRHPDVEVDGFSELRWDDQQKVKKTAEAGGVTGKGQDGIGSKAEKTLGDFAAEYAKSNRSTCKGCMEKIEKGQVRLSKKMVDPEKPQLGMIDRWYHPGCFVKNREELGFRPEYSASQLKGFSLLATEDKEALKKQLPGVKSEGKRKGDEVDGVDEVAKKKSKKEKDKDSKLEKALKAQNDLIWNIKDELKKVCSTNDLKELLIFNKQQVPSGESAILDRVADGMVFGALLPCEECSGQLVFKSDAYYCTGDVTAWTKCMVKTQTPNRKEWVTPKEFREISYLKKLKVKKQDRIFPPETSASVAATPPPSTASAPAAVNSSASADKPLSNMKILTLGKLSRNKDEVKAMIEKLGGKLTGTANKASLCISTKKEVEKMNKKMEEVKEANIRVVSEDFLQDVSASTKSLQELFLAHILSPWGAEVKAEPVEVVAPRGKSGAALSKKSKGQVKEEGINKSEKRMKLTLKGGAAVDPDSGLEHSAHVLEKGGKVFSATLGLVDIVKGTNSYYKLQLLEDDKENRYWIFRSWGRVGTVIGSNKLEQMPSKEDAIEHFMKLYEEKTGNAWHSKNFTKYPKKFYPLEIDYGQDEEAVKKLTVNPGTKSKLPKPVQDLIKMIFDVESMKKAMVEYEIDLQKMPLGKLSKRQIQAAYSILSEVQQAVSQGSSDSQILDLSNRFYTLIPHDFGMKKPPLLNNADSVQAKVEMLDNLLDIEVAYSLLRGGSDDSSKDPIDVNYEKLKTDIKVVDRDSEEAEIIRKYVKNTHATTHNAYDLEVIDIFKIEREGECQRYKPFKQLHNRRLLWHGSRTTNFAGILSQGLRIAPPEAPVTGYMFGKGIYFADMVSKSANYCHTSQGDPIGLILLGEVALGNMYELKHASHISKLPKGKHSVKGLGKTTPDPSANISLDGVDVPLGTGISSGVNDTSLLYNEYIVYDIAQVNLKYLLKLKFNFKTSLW

Assays:
[1] = biological target: FLAG-TARG1-G123E (human) (UniProt Q9Y530); test: co-IP; FLAG-TARG1 (wildtype or G123E) transiently expressed in HEK293; TAP lysis buffer without olaparib (lysis-induced PARylation); anti-FLAG M2 beads, 4 °C; endogenous partners detected by Western blot
[2] = biological target: FLAG-TARG1 wildtype (human) (UniProt Q9Y530); test: co-IP; FLAG-TARG1 transiently expressed in HEK293 or HEK293T; TAP lysis buffer with 10 µM olaparib; anti-FLAG M2 beads, 4 °C; endogenous partners detected by Western blot

Row | binding [1] | binding [2] | Substance
1 | no binding |  | XRCC1 (from UniProt P18887 1-633)
2 | no binding |  | SSRP1 (from UniProt Q08945 1-709)
3 | no binding |  | CHD1L (from UniProt Q86WJ1 1-897)
4 |  | binds | ARTD1 (from UniProt P09874 1-1014)
